Among the data in PMC7083938 (2020) are response values, retold here.

B1: mNELL2 EGF1-6 WT [mouse] / biotinylated mouse Robo3 FN1–3 (Avi-tagged) [modified: biotin on the Avi-tag (BirA); biotin on the Avi-tag (BirA)] [mouse] (parent complex)
chain 1: GYDFCSEKHTCMENSVCRNLNDRAVCSCRDGFRALREDNAYCEDIDECAEGRHYCRENTMCVNTPGSFMCICKTGYIRIDDYSCTEHDECLTNQHNCDENALCFNTVGGHNCVCKPGYTGNGTTCKAFCKDGCRNGGACIAANVCACPQGFTGPSCETDIDECSEGFVQCDSRANCINLPGWYHCECRDGYHDNGMFAPGGESCEDIDECGTGRHSCTNDTICFNLDGGYDCRCPHGKNCT
chain 2: PPSQPIVTEVTANSITLTWKPNPQSGATATSYVIEAFSQAAGNTWRTVADGVQLETYTISGLQPNTIYLFLVRAVGAWGLSEPSPVSEPVQTQDSSLSRPAEDPWKGQRGLAEVAVRMQEPTVLGPRTLQVSWTVDGPVQLVQGFRVSWRIAGLDQGSWTMLDLQSPHKQSTVLRGLPPGAQIQIKVQVQGQEGLGAESPFVTRSIPEEAPSGPPQGVAVALGGDRNSSVTVSWEPPLPSQRNGVITEYQIWCLGNESRFHLNRSAAGWARSVTFSGLLPGQIYRALVAAATSAGVGVASAPVLVQLPFPPA

The variants in the first assay derive from B1. In words: SPR; value at about 20 µM analyte (highest concentration shown for the wild type); parent: 220; read off a plot.
Regarding chain 1 D81A, chain 1 Y82A, the response was ~11 RU.

As for chain 1 V113A, the response is ~200 RU. On the same count and under the same terms, in the case of chain 1 R52A, chain 1 Y54A it was ~33 RU.

Turning to chain 1 R56A, the response was ~190 RU.

Variants of B1 are the subject of the next assay. In words: SPR; value at the highest analyte concentration of this mutant, about 90 µM; wild type not shown at this concentration; read off a plot. For orientation: Surface plasmon resonance follows binding to a sensor surface in real time, without labels.
As for chain 1 L102A, chain 1 F104A, the response was ~22 RU.
